Consider two molecules from article doi:10.1101/592923.

By UniProt entry, the sequences of proteins in these tests, tags left out.
UniProt Q00416: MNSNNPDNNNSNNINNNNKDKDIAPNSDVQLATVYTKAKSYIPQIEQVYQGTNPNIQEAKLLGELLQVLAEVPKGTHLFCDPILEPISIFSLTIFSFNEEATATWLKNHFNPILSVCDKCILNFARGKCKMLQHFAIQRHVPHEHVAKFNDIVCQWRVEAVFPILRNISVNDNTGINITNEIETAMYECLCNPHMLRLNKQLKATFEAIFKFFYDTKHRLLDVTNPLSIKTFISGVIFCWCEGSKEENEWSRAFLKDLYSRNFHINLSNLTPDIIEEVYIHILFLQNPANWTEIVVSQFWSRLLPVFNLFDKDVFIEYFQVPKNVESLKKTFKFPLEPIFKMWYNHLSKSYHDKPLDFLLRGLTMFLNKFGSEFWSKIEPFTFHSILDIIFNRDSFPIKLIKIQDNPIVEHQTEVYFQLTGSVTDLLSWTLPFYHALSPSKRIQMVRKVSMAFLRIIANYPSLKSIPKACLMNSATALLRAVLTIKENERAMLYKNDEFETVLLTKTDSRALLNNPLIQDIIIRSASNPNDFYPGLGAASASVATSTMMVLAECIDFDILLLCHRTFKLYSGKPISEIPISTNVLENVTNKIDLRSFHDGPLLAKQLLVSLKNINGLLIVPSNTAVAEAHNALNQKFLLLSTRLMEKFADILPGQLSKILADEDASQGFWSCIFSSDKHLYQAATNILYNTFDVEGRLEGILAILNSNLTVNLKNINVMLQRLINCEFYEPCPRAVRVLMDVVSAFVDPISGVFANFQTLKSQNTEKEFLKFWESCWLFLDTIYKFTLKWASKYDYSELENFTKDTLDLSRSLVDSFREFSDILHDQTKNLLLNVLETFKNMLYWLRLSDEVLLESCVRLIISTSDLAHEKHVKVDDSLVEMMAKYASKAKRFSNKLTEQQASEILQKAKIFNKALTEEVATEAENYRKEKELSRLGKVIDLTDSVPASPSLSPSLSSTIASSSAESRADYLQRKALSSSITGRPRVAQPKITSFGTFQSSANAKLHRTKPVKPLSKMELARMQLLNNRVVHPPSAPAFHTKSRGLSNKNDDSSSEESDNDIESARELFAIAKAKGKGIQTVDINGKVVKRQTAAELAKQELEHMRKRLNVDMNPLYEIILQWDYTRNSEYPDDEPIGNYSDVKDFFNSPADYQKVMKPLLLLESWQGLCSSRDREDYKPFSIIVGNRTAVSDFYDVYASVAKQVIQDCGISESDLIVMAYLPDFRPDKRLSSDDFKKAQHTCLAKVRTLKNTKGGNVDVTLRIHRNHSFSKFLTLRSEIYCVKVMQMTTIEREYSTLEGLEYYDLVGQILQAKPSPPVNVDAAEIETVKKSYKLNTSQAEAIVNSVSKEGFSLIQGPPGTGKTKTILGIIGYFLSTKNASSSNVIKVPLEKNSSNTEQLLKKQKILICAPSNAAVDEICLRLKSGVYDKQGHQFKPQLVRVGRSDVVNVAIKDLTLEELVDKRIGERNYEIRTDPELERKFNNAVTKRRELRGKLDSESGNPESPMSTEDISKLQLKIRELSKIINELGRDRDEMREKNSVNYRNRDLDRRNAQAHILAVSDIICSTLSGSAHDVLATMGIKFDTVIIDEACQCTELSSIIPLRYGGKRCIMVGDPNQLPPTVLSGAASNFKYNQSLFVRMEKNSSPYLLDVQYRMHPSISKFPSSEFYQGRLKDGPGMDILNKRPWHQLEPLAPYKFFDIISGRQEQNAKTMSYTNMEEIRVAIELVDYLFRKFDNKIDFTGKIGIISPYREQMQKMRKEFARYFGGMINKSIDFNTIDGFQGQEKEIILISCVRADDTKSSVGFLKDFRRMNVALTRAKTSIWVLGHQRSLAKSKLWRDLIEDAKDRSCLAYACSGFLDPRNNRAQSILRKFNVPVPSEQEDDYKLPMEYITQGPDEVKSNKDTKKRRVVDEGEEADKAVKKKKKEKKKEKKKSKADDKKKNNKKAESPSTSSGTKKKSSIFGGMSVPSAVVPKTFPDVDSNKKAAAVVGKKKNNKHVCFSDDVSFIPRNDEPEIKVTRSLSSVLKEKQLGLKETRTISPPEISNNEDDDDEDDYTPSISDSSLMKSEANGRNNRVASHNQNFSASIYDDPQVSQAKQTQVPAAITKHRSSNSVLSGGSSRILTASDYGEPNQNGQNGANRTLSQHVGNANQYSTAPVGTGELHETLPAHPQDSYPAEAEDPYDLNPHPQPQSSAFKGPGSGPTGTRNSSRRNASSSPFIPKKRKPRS

These are yes or no findings as the source states them, for the method shown. Binding seen in cells or lysates may run through a third protein. These calls come from enrichment with a bait or labelling near it, and not all partners need be listed.

The target of the test is T1, Nab3-TAP (S. cerevisiae) (UniProt P38996).
T1 sequence: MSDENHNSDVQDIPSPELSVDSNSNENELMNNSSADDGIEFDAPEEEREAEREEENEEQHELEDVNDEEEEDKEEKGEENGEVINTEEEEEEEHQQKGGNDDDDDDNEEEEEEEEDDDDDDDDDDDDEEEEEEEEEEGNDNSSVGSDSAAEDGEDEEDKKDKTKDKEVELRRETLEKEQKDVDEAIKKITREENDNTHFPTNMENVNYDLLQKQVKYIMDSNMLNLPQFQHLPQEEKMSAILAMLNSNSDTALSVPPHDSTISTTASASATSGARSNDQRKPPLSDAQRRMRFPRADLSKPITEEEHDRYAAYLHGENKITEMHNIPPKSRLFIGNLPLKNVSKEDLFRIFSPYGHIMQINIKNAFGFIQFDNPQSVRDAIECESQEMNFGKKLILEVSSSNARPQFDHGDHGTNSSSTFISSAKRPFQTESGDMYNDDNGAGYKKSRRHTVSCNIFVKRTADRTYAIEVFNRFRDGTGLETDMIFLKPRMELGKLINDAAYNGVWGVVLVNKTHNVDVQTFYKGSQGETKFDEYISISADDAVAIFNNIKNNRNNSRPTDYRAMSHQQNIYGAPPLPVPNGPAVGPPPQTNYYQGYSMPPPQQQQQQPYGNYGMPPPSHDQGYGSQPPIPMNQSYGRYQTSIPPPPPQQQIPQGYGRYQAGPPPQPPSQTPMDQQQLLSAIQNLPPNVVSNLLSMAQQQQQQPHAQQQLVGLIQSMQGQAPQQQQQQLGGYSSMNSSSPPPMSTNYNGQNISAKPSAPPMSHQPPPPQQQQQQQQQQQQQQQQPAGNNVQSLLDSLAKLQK
Nature of the test: affinity purification with mass spectrometry.

Turning to Sen1 (from UniProt Q00416 1-2231), the binding entry is “binds”.

B1: Nrd1 (protein, UniProt P53617 1-575)
chain: MQQDDDFQNFVATLESFKDLKSGISGSRIKKLTTYALDHIDIESKIISLIIDYSRLCPDSHKLGSLYIIDSIGRAYLDETRSNSNSSSNKPGTCAHAINTLGEVIQELLSDAIAKSNQDHKEKIRMLLDIWDRSGLFQKSYLNAIRSKCFAMDISNNTANTASQQLSLDPKQRSKQILSNLKKSPPLNLNISLPTDLTSTDPAKQQAALFQVIAALQKHFKTLPSHTSVGTVAPPQAHTITEYGSRRERERERERYNSRRNRSRSPPAPFSQPSTGRKDRYPSVAQDQYSIGAPNTTFGTNNHHLYPDELNVSNNPHYRPKPVSYDSTLPPDHIKVYSRTLFIGGVPLNMKEWDLANVLKPFAEVQSVILNNSRKHAFVKVYSRHEAENVLQNFNKDGALPLRTRWGVGFGPRDCCDYQHGYSIIPMHRLTDADKKWSVSAQWGGTSGQPLVTGIVFEEPDIIVGEGVSSKAISQKMPTDSGRNGPRSGKPNKSGSISSISPVPYGNAPLASPPPQQYVQPMMQQPYGYAPNQPLPSQGPAAAAPPVPQQQFDPTAQLNSLMNMLNQQQQQQQQS
B1: the binding entry was “binds”.
